Results are given in words; binding and its absence hold for the method and conditions named. In cells and extracts the contact can be indirect. Some results given as binding are weak or reduced against the parent protein; the word gives no strength. Blank lines part the entries; values can stand above or below the substance they belong to.
How the values were obtained:
[1] = molecular target: HA-PAX8 FL (UniProt Q06710); experiment: co-IP; HEK293FT transfected with HA-PAX8 FL and PRDM3 FL, NP40 lysate (320 ug), magnetic HA beads overnight at 4 °C, Western blot
[2] = molecular target: PAX8-LgBit (UniProt Q06710); experiment: split reporter; IVTT-NanoBit: PAX8-LgBit and mutants made in a mammalian in vitro transcription-translation system, mixed with PRDM3-SmBit (Fig. 2B)
[3] = molecular target: LgBiT-PAX8 FL (UniProt Q06710); experiment: split reporter; cellular NanoBit assay in transfected HEK293A cells, luminescence 48 h after transfection

By UniProt entry, the sequences of proteins in these tests, tags left out. Where a name states a change or a piece, a line headed by the entry shows the natural chain unless it says otherwise. Chains listed by the source or under a name are the forms on record and can include a tag or linker.
UniProt Q06710: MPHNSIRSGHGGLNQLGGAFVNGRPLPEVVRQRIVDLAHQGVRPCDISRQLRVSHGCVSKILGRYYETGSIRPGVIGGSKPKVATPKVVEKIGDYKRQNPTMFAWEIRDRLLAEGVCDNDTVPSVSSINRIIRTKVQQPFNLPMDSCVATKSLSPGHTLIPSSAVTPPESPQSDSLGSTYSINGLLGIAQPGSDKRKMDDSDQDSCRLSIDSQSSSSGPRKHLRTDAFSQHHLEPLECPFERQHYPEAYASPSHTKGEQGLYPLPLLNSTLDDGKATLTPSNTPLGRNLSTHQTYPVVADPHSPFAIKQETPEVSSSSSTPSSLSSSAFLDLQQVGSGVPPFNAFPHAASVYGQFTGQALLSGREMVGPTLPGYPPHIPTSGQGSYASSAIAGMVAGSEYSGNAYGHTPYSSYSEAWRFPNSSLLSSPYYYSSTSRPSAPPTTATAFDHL
UniProt Q03112: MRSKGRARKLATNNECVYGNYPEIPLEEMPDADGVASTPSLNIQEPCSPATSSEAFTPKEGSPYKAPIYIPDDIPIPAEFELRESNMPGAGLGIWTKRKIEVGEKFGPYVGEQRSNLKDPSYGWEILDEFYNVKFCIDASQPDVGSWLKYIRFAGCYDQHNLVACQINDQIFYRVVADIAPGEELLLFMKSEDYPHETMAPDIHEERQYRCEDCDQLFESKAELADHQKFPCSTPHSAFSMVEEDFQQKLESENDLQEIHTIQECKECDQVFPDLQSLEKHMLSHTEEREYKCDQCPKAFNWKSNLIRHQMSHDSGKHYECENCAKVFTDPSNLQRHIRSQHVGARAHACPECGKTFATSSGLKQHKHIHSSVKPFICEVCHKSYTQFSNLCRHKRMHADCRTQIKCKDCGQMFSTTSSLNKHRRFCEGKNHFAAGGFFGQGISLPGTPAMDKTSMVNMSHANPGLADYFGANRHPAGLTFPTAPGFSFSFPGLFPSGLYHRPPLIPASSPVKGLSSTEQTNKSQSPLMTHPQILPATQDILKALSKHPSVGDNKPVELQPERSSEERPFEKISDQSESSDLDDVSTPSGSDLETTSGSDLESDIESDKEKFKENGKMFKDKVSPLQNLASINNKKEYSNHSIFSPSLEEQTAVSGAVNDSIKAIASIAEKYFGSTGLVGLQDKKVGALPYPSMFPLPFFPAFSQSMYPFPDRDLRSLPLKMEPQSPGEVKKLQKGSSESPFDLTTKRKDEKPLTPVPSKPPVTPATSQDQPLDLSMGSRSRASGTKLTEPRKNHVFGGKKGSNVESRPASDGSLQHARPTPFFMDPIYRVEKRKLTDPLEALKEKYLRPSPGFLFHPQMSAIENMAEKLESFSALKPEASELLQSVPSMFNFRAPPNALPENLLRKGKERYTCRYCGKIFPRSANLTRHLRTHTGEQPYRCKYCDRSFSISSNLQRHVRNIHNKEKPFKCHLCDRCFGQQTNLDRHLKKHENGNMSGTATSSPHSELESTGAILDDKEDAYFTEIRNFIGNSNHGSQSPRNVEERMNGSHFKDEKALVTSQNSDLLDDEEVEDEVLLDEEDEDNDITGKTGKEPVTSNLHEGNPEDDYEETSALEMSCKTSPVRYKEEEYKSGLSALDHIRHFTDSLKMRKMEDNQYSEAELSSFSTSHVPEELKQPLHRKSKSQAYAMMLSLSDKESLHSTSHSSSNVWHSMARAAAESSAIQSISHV
PRDM3 FL (Q03112-3, form named): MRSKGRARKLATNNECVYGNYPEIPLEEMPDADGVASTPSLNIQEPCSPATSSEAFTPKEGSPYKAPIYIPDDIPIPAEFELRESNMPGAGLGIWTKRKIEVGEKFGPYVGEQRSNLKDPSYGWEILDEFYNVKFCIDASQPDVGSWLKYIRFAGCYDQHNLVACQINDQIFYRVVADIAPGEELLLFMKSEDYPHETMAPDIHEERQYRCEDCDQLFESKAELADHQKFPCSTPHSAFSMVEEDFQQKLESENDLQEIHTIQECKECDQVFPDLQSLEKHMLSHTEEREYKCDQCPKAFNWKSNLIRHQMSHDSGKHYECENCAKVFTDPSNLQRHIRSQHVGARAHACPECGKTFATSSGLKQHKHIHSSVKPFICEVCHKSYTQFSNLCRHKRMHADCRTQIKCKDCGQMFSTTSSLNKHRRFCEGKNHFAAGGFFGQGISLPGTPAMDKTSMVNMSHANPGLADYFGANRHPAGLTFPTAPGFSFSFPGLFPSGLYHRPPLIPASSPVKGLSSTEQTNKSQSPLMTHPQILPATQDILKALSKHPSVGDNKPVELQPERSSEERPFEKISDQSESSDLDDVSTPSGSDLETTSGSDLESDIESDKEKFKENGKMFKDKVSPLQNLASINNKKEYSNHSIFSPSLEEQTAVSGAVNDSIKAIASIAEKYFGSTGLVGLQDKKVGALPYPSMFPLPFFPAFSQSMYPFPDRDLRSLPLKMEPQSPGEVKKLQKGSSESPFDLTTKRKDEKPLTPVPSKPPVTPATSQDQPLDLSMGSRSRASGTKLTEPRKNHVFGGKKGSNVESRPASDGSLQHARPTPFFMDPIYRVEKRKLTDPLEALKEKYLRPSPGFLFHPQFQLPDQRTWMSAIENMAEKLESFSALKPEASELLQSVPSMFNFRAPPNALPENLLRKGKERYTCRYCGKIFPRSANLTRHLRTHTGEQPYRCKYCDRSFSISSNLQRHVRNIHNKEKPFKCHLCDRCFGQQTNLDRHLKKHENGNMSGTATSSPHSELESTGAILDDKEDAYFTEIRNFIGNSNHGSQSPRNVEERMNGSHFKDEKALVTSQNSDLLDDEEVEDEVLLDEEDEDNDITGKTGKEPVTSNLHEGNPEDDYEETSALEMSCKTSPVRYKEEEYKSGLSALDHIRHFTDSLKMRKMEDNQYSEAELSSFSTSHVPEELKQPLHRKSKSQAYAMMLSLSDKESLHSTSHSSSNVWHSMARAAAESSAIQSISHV

- binding [1]: binds
Substance: PRDM3 FL (from UniProt Q03112-3 1-1239)

- binding [2]: binds
Substance: PRDM3-SmBit (from UniProt Q03112 1-1230)

- binding [3]: binds
Substance: PRDM3 FL-SmBiT (from UniProt Q03112 1-1230)

From PMC8076227
